Reference: the supplement of paper PMC11732987, “Enantioselective OTUD7B fragment discovery through chemoproteomics screening and high-throughput optimisation” (Communications Chemistry, 2025)
The list shows a part of the results. The data scatter; read single values as rough.

The chains behind the UniProt entries cited, without tags or fusion partners. Where a name states a change or a piece, a line headed by the entry shows the natural chain unless it says otherwise. Residues count along the entry.
UniProt Q9Y4P3: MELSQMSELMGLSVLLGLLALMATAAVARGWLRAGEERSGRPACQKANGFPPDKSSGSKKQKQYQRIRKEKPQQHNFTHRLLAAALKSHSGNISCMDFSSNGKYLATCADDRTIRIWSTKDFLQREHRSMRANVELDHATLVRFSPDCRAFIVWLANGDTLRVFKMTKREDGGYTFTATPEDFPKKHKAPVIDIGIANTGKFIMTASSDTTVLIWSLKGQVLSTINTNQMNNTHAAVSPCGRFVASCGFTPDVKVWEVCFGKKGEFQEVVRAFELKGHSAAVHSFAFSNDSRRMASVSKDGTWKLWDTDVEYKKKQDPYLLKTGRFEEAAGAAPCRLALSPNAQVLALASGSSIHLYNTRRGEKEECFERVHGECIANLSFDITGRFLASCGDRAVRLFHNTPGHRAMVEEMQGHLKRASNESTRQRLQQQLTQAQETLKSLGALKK
UniProt Q9BV44: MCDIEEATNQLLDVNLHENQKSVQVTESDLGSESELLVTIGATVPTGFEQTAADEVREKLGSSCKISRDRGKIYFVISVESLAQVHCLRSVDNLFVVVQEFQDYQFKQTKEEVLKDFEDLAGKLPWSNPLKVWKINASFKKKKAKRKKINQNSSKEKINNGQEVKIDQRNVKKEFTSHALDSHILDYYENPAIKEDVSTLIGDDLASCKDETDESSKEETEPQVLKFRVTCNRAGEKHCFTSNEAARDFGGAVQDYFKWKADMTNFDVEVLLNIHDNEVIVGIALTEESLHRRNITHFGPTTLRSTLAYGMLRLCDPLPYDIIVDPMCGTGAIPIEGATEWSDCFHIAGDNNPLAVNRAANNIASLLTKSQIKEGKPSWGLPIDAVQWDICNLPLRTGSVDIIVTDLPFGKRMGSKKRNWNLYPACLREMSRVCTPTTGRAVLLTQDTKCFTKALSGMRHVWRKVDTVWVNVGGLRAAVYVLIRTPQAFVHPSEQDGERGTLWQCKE
UniProt Q9C0D5, 1630-1655: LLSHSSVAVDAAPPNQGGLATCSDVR
UniProt Q9UGU0: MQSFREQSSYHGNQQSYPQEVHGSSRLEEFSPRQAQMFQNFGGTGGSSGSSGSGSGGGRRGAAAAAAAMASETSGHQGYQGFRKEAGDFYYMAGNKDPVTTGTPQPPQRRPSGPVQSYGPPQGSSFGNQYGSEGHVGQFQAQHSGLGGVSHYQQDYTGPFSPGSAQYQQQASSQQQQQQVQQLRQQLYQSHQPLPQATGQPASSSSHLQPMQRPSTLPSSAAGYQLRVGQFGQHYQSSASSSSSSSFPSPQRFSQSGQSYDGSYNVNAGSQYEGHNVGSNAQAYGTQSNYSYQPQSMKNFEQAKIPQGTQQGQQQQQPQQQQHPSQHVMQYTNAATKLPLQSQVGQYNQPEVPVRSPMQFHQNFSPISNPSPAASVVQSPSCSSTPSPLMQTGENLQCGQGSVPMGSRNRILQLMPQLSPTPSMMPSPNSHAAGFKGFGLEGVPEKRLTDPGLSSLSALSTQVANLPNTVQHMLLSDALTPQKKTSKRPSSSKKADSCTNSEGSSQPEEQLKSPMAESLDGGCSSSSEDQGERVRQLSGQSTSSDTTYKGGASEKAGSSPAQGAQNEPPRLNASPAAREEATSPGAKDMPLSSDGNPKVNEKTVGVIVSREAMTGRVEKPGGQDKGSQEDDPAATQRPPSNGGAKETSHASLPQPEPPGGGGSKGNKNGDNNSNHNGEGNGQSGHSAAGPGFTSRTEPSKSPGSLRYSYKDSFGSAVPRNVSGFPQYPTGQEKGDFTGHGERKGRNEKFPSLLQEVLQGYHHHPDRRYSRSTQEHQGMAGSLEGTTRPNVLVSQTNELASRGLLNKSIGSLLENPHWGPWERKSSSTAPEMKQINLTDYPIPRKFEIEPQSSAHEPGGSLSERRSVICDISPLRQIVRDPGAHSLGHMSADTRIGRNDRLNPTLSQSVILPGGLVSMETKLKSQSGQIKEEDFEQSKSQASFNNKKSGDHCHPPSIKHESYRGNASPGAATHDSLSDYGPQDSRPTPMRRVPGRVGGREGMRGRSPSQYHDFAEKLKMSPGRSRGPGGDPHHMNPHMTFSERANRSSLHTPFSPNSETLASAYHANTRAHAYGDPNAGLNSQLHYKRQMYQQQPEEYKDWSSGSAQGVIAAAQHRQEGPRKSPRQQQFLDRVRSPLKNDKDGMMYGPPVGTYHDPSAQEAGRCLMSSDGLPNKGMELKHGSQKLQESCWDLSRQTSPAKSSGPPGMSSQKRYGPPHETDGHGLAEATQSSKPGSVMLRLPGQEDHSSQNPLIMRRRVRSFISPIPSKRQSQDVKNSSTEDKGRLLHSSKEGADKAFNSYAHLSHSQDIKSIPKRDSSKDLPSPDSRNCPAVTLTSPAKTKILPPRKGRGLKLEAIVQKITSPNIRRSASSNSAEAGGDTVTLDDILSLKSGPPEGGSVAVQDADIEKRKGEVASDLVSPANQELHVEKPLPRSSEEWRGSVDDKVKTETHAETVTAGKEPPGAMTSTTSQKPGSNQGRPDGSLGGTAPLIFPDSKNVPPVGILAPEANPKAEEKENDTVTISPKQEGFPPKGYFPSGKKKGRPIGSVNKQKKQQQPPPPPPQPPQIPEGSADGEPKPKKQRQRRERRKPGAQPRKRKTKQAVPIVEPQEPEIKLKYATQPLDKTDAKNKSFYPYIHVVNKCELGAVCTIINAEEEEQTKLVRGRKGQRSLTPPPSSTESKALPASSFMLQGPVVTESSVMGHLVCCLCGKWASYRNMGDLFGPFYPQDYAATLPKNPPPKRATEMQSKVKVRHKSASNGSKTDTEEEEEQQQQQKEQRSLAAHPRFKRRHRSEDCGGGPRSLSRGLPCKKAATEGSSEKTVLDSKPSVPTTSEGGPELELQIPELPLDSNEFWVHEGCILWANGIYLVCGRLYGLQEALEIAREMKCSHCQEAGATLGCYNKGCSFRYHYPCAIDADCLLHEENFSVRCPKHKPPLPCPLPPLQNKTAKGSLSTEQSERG
UniProt Q9BTF0: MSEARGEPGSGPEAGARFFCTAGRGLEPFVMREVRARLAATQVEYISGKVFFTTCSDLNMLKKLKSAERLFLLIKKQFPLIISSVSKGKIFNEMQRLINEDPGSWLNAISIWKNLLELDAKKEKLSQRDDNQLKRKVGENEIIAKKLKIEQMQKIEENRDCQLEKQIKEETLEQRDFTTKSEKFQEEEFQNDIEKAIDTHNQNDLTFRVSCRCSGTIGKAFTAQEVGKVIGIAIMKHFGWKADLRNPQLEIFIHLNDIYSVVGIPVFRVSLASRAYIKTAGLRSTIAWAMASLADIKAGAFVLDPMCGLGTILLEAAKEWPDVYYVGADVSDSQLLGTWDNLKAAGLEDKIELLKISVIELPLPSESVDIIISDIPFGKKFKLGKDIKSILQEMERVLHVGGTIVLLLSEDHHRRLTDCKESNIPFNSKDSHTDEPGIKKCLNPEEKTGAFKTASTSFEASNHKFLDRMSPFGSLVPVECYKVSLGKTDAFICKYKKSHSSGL
UniProt Q9Y4C2: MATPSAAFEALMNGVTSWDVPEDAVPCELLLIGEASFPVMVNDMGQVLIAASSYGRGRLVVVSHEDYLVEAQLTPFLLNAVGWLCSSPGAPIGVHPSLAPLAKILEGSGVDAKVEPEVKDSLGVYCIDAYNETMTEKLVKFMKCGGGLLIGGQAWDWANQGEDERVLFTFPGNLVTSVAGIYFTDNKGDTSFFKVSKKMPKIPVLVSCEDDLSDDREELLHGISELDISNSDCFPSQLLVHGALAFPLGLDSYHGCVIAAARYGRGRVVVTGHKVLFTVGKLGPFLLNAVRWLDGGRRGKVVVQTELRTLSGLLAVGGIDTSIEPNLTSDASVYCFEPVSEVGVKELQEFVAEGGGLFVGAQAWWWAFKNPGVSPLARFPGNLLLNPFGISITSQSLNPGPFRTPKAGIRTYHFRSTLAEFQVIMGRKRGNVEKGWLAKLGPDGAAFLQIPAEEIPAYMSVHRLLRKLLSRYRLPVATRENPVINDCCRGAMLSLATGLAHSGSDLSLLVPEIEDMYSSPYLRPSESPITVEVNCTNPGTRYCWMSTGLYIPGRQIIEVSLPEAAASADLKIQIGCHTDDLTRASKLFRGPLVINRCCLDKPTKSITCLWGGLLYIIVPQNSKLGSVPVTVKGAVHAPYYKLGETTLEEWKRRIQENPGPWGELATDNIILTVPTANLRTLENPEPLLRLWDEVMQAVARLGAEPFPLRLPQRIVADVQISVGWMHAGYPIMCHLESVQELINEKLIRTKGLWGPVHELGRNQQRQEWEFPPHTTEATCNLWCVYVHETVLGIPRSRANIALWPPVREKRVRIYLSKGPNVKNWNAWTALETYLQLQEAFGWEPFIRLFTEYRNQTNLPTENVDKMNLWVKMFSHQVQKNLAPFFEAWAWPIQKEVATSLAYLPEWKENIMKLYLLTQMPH
UniProt Q9BU02: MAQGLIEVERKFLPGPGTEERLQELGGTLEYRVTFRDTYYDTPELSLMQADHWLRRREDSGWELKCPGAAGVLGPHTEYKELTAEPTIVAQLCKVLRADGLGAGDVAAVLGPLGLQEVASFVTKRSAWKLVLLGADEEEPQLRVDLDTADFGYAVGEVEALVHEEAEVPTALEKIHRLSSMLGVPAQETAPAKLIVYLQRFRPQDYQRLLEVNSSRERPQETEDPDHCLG
UniProt Q96J01: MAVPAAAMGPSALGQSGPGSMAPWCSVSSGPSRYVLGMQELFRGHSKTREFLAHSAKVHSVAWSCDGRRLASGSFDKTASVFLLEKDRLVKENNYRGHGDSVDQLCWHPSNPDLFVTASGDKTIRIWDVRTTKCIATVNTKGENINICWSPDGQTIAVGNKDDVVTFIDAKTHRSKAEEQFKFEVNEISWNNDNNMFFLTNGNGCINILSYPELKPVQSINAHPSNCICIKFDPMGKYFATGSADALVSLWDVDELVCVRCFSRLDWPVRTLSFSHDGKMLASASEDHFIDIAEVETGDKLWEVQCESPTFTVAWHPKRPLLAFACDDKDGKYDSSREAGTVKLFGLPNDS
UniProt Q9UPU7: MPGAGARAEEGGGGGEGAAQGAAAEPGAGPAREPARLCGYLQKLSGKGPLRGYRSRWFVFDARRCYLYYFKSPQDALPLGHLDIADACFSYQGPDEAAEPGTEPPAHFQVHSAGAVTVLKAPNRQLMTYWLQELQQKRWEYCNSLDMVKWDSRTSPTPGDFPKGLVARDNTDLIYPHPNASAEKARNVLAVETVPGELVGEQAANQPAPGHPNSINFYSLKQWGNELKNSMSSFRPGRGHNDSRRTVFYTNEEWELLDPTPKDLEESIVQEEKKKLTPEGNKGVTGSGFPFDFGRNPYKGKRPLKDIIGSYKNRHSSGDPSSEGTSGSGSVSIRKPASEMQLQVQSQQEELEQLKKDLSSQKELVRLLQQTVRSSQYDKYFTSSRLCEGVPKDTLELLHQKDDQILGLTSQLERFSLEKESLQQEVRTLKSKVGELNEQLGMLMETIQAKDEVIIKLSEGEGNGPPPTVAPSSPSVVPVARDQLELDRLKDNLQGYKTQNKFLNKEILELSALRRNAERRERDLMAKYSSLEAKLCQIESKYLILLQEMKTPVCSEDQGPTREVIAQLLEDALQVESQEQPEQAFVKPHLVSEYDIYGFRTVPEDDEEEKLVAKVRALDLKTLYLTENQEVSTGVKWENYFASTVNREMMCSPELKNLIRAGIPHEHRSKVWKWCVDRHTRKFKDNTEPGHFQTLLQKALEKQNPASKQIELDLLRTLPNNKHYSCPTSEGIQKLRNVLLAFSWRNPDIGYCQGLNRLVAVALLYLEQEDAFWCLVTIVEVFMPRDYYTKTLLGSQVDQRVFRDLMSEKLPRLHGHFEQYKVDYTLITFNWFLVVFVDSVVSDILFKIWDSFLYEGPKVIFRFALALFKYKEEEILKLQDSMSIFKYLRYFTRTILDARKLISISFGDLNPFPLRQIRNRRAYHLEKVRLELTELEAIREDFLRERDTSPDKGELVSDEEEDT
UniProt Q9BXI6: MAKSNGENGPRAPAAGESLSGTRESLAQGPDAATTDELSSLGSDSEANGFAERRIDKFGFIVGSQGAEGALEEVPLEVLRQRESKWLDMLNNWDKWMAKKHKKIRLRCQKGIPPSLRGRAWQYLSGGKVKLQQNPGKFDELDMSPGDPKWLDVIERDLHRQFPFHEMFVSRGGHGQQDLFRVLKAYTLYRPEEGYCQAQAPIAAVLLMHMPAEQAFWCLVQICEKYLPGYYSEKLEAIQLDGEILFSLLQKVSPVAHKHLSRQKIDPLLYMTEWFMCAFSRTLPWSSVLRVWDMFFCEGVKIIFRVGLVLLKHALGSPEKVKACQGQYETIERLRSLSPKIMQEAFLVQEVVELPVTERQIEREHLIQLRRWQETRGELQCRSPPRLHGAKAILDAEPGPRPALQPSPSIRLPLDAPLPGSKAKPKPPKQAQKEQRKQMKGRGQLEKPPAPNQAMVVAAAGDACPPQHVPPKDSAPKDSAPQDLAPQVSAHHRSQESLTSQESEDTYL

Key:
[1] = compound: ClCC(=O)N[C@@H]1CCCc2ccccc12; test: log2 mean competition ratio of IA-DTB cysteine labelling (DMSO/compound) (log2 ratio); higher = stronger cysteine engagement by compound; conditions: treatment time: 4 h, cell line lysate: HEK293T
Protocol: (§1)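 IA-DTB competitive cysteine chemoproteomics in HEK293T RIPA lysate. Lysates were treated with compound 29 or 30 at 50 or 200 µM for 4 h, then IA-DTB (500 µM, 1 h), trypsin-digested, NeutrAvidin-enriched and analysed by diaPASEF. Competition ratio = intensity DMSO / intensity compound (n=4 treated, n=64 DMSO); binding: mean log2 CR ≥ 1 and p ≤ 0.05 plus QC filters. Target is the cysteine site.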

[2] = compound: ClCC(=O)N[C@H]1CCCc2ccccc12; test: as above; conditions: treatment time: 4 h, cell line lysate: HEK293T
Protocol: as §1

Target: TBL2 C108 (UniProt Q9Y4P3)
- log2 mean competition ratio ([1]; 50 µM): -0.0796
- log2 mean competition ratio ([1]; 200 µM): -0.0612
- log2 mean competition ratio ([2]; 50 µM): 0.171
- log2 mean competition ratio ([2]; 200 µM): -0.0196

Target: TADA3 C162 (UniProt O75528)
- log2 mean competition ratio ([1]; 50 µM): 0.381
- log2 mean competition ratio ([1]; 200 µM): -0.0459
- log2 mean competition ratio ([2]; 50 µM): 0.106
- log2 mean competition ratio ([2]; 200 µM): -0.164

Target: TBC1D9B C340 (UniProt Q66K14)
- log2 mean competition ratio ([1]; 50 µM): -0.0575
- log2 mean competition ratio ([1]; 200 µM): -0.321
- log2 mean competition ratio ([2]; 50 µM): -0.28
- log2 mean competition ratio ([2]; 200 µM): -0.0759

Target: TCP1 C147 (UniProt P17987)
- log2 mean competition ratio ([1]; 50 µM): 0.176
- log2 mean competition ratio ([1]; 200 µM): -0.204
- log2 mean competition ratio ([2]; 50 µM): 0.293
- log2 mean competition ratio ([2]; 200 µM): -0.18

Target: THUMPD3 C505 (UniProt Q9BV44)
- log2 mean competition ratio ([1]; 50 µM): -0.138
- log2 mean competition ratio ([1]; 200 µM): -0.0839
- log2 mean competition ratio ([2]; 50 µM): 0.213
- log2 mean competition ratio ([2]; 200 µM): -0.0445

Target: TET2 C501 (UniProt Q6N021)
- log2 mean competition ratio ([1]; 50 µM): 0.24
- log2 mean competition ratio ([1]; 200 µM): 0.0288
- log2 mean competition ratio ([2]; 50 µM): -0.134
- log2 mean competition ratio ([2]; 200 µM): -0.0521

Target: TEDC1 C417 (UniProt Q86SX3)
- log2 mean competition ratio ([1]; 50 µM): -0.212
- log2 mean competition ratio ([1]; 200 µM): -0.102
- log2 mean competition ratio ([2]; 200 µM): -0.235

Target: TBC1D4 C74 (UniProt O60343)
- log2 mean competition ratio ([1]; 50 µM): -0.0158
- log2 mean competition ratio ([1]; 200 µM): 0.126
- log2 mean competition ratio ([2]; 50 µM): -0.0432
- log2 mean competition ratio ([2]; 200 µM): 0.0503

Target: TAF11 C173 (UniProt Q15544)
- log2 mean competition ratio ([1]; 50 µM): -0.0886
- log2 mean competition ratio ([1]; 200 µM): 0.331
- log2 mean competition ratio ([2]; 50 µM): -0.159
- log2 mean competition ratio ([2]; 200 µM): -0.146

Target: TANC1 C1611 (UniProt Q9C0D5)
- log2 mean competition ratio ([1]; 50 µM): -0.0344
- log2 mean competition ratio ([1]; 200 µM): 0.0756
- log2 mean competition ratio ([2]; 50 µM): -0.0747
- log2 mean competition ratio ([2]; 200 µM): -0.0326

Target: TCEAL5;TCEAL6;TCEAL3 C149;(C143);(C143)
- log2 mean competition ratio ([1]; 50 µM): 0.00883
- log2 mean competition ratio ([1]; 200 µM): 0.134
- log2 mean competition ratio ([2]; 50 µM): -0.0349
- log2 mean competition ratio ([2]; 200 µM): 0.281

Target: TEPSIN C243
- log2 mean competition ratio ([1]; 50 µM): -0.0605
- log2 mean competition ratio ([1]; 200 µM): 0.595
- log2 mean competition ratio ([2]; 50 µM): 0.352
- log2 mean competition ratio ([2]; 200 µM): -0.386

Target: TECPR1 C84 (UniProt Q7Z6L1)
- log2 mean competition ratio ([1]; 50 µM): -0.135
- log2 mean competition ratio ([1]; 200 µM): -0.124
- log2 mean competition ratio ([2]; 50 µM): -0.134
- log2 mean competition ratio ([2]; 200 µM): -0.117

Target: TCF20 C1328 (UniProt Q9UGU0)
- log2 mean competition ratio ([1]; 50 µM): 0.113
- log2 mean competition ratio ([1]; 200 µM): -0.0323
- log2 mean competition ratio ([2]; 50 µM): -0.235
- log2 mean competition ratio ([2]; 200 µM): -0.176

Target: TAF6 C460 (UniProt P49848)
- log2 mean competition ratio ([1]; 50 µM): 0.491
- log2 mean competition ratio ([1]; 200 µM): 0.0673
- log2 mean competition ratio ([2]; 50 µM): 0.0964
- log2 mean competition ratio ([2]; 200 µM): 0.16

Target: TACC3 C426
- log2 mean competition ratio ([1]; 50 µM): -0.0612
- log2 mean competition ratio ([1]; 200 µM): -0.0672
- log2 mean competition ratio ([2]; 50 µM): -0.0961
- log2 mean competition ratio ([2]; 200 µM): 0.0496

Target: TECPR1 C462 (UniProt Q7Z6L1)
- log2 mean competition ratio ([1]; 50 µM): -0.456
- log2 mean competition ratio ([1]; 200 µM): 0.0831
- log2 mean competition ratio ([2]; 50 µM): -0.125
- log2 mean competition ratio ([2]; 200 µM): 0.0767

Target: TBL2 C391 (UniProt Q9Y4P3)
- log2 mean competition ratio ([1]; 50 µM): -0.029
- log2 mean competition ratio ([1]; 200 µM): -0.111
- log2 mean competition ratio ([2]; 50 µM): 0.0854
- log2 mean competition ratio ([2]; 200 µM): -0.142

Target: TECPR2 C282 (UniProt O15040)
- log2 mean competition ratio ([1]; 50 µM): -0.116
- log2 mean competition ratio ([1]; 200 µM): -0.352
- log2 mean competition ratio ([2]; 50 µM): 0.00422
- log2 mean competition ratio ([2]; 200 µM): -0.304

Target: TBC1D7 C195 (UniProt Q9P0N9)
- log2 mean competition ratio ([1]; 50 µM): -0.284
- log2 mean competition ratio ([1]; 200 µM): 0.148
- log2 mean competition ratio ([2]; 50 µM): 0.156
- log2 mean competition ratio ([2]; 200 µM): -0.78

Target: TAX1BP1 C525 (UniProt Q86VP1)
- log2 mean competition ratio ([1]; 50 µM): -0.0151
- log2 mean competition ratio ([1]; 200 µM): -0.0143
- log2 mean competition ratio ([2]; 50 µM): 0.166
- log2 mean competition ratio ([2]; 200 µM): 0.124

Target: THOP1 C246 (UniProt P52888)
- log2 mean competition ratio ([1]; 50 µM): -0.0976
- log2 mean competition ratio ([1]; 200 µM): 0.521
- log2 mean competition ratio ([2]; 50 µM): -0.136
- log2 mean competition ratio ([2]; 200 µM): 0.318

Target: THUMPD2 C161 (UniProt Q9BTF0)
- log2 mean competition ratio ([1]; 50 µM): -0.165
- log2 mean competition ratio ([1]; 200 µM): 0.0392
- log2 mean competition ratio ([2]; 50 µM): -0.275
- log2 mean competition ratio ([2]; 200 µM): 0.0197

Target: THOC2 C1111
- log2 mean competition ratio ([1]; 50 µM): -0.00169
- log2 mean competition ratio ([1]; 200 µM): -0.097
- log2 mean competition ratio ([2]; 50 µM): -0.416
- log2 mean competition ratio ([2]; 200 µM): -0.383

Target: SYTL4 C477 (UniProt Q96C24)
- log2 mean competition ratio ([1]; 50 µM): 0.0781
- log2 mean competition ratio ([1]; 200 µM): -0.27
- log2 mean competition ratio ([2]; 200 µM): 0.2

Target: TBCK C512 (UniProt Q8TEA7)
- log2 mean competition ratio ([1]; 50 µM): 0.383
- log2 mean competition ratio ([1]; 200 µM): -0.0439
- log2 mean competition ratio ([2]; 50 µM): -0.226
- log2 mean competition ratio ([2]; 200 µM): -0.0421

Target: TBL2 C367 (UniProt Q9Y4P3)
- log2 mean competition ratio ([1]; 50 µM): -0.0173
- log2 mean competition ratio ([1]; 200 µM): 0.0466
- log2 mean competition ratio ([2]; 50 µM): -0.0564
- log2 mean competition ratio ([2]; 200 µM): -0.0834

Target: TCAF1 C576 (UniProt Q9Y4C2)
- log2 mean competition ratio ([1]; 50 µM): 0.0616
- log2 mean competition ratio ([1]; 200 µM): 0.206
- log2 mean competition ratio ([2]; 50 µM): -0.383
- log2 mean competition ratio ([2]; 200 µM): 0.189

Target: TARS3 C62
- log2 mean competition ratio ([1]; 50 µM): -0.123
- log2 mean competition ratio ([1]; 200 µM): 0.0841
- log2 mean competition ratio ([2]; 50 µM): 0.135
- log2 mean competition ratio ([2]; 200 µM): 0.331

Target: THTPA C228 (UniProt Q9BU02)
- log2 mean competition ratio ([1]; 50 µM): -0.0132
- log2 mean competition ratio ([1]; 200 µM): 0.182
- log2 mean competition ratio ([2]; 50 µM): -0.26
- log2 mean competition ratio ([2]; 200 µM): 0.189

Target: TCP1 C357 (UniProt P17987)
- log2 mean competition ratio ([1]; 50 µM): -0.0767
- log2 mean competition ratio ([1]; 200 µM): -0.133
- log2 mean competition ratio ([2]; 50 µM): -0.464
- log2 mean competition ratio ([2]; 200 µM): 0.023

Target: TANC2 C224 (UniProt Q9HCD6)
- log2 mean competition ratio ([1]; 50 µM): -0.0112
- log2 mean competition ratio ([1]; 200 µM): -0.0247
- log2 mean competition ratio ([2]; 50 µM): -0.0378
- log2 mean competition ratio ([2]; 200 µM): -0.000858

Target: TAF10 C174 (UniProt Q12962)
- log2 mean competition ratio ([1]; 50 µM): -0.114
- log2 mean competition ratio ([1]; 200 µM): 0.434
- log2 mean competition ratio ([2]; 50 µM): -0.0543
- log2 mean competition ratio ([2]; 200 µM): 0.446

Target: TARS2 C603 (UniProt Q9BW92)
- log2 mean competition ratio ([1]; 50 µM): 0.205
- log2 mean competition ratio ([1]; 200 µM): 0.0594
- log2 mean competition ratio ([2]; 50 µM): -0.185
- log2 mean competition ratio ([2]; 200 µM): -0.041

Target: THOC3 C65 (UniProt Q96J01)
- log2 mean competition ratio ([1]; 50 µM): 0.147
- log2 mean competition ratio ([1]; 200 µM): -0.0753
- log2 mean competition ratio ([2]; 50 µM): 0.364
- log2 mean competition ratio ([2]; 200 µM): -0.0841

Target: SZT2 C2453 (UniProt Q5T011)
- log2 mean competition ratio ([1]; 50 µM): -0.115
- log2 mean competition ratio ([1]; 200 µM): 0.0764
- log2 mean competition ratio ([2]; 50 µM): -0.11
- log2 mean competition ratio ([2]; 200 µM): 0.222

Target: TAF6L C122 (UniProt Q9Y6J9)
- log2 mean competition ratio ([1]; 50 µM): 0.0296
- log2 mean competition ratio ([1]; 200 µM): 0.0549
- log2 mean competition ratio ([2]; 50 µM): -0.12
- log2 mean competition ratio ([2]; 200 µM): 0.259

Target: TBC1D2B C38 (UniProt Q9UPU7)
- log2 mean competition ratio ([1]; 50 µM): 0.0101
- log2 mean competition ratio ([1]; 200 µM): 0.153
- log2 mean competition ratio ([2]; 50 µM): 0.637
- log2 mean competition ratio ([2]; 200 µM): 0.322

Target: TANC1 C1651 (UniProt Q9C0D5)
- log2 mean competition ratio ([1]; 50 µM): 0.335
- log2 mean competition ratio ([1]; 200 µM): -0.199
- log2 mean competition ratio ([2]; 50 µM): 0.596
- log2 mean competition ratio ([2]; 200 µM): 0.00345

Target: TANC2 C162 (UniProt Q9HCD6)
- log2 mean competition ratio ([1]; 50 µM): 0.114
- log2 mean competition ratio ([1]; 200 µM): -0.36
- log2 mean competition ratio ([2]; 50 µM): 0.154
- log2 mean competition ratio ([2]; 200 µM): -0.0833

Target: TBC1D10A C324 (UniProt Q9BXI6)
- log2 mean competition ratio ([1]; 50 µM): 0.465
- log2 mean competition ratio ([1]; 200 µM): 0.333
- log2 mean competition ratio ([2]; 50 µM): 0.0373
- log2 mean competition ratio ([2]; 200 µM): 0.335

Target: TAF6 C130 (UniProt P49848)
- log2 mean competition ratio ([1]; 50 µM): -0.167
- log2 mean competition ratio ([1]; 200 µM): 0.0955
- log2 mean competition ratio ([2]; 50 µM): -0.0492
- log2 mean competition ratio ([2]; 200 µM): 0.136

Target: TEPSIN C31
- log2 mean competition ratio ([1]; 50 µM): -0.194
- log2 mean competition ratio ([1]; 200 µM): -0.0805
- log2 mean competition ratio ([2]; 50 µM): -0.482
- log2 mean competition ratio ([2]; 200 µM): 0.197

Target: TET2 C784 (UniProt Q6N021)
- log2 mean competition ratio ([1]; 50 µM): -0.0961
- log2 mean competition ratio ([1]; 200 µM): -0.0276
- log2 mean competition ratio ([2]; 50 µM): -0.246
- log2 mean competition ratio ([2]; 200 µM): -0.357
